About 4,500 (1.3%) of roughly 340,000 compounds were called active. The inconclusive results got no clear call from the source; some entries with a clear call stand among them for comparison. Calls follow the shape of the dose curve; as a rule, active = well fitted inhibition curve with a large enough effect; inconclusive = small, poorly fitted or top-dose-only effect, or another doubt; inactive = no such curve, though single readings can be large or run the other way. Potencies of inconclusive entries are doubtful fits and often do not repeat.
Biological target: DNA polymerase beta (Homo sapiens) (UniProt P06746)
Assay: qHTS Assay for Inhibitors of DNA Polymerase Beta
Details: Pol beta primer extension/strand displacement, fluorescence kinetic; activity change, negative = inhibition: at 114 µM (top of the series)
Outline: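 10 nM enzyme + cpd, 15 min RT; start with substrate 50 nM final; read 0 min and after 10 min RT. Corrected, normalized data; 4-parameter Hill curve fit.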
% is scaled to controls: 0 for no effect and ±100 for the full control effect; potency is read from the fitted curve at half-maximal effect.

Potency, inactive:
COc1cc(OC)cc(C(=O)NN2CCOCC2)c1
O=C(O)CN1C(=O)/C(=C/C=C/c2ccccc2)SC1=S
Fc1ccccc1-n1ncc2c1ncn1nc(-c3ccccc3Cl)nc21
Clc1ccc2nc(NCc3ccccc3)c3nncn3c2c1
Cc1c(Cl)cccc1NC(=O)Cn1cc(C(=O)C2CCCCC2)c2ccccc21
CC1CCC(NC(=O)c2ccc3c(c2)N(Cc2ccccc2)C(=O)c2ccccc2S3(=O)=O)CC1 (stereo unspecified)
O=C1NNC(c2ccccc2)=N/C1=C\c1ccccc1Cl
O=C(O)c1cc([N+](=O)[O-])ccc1N1CCCCC1
Cc1noc(/C=C/c2ccc(-c3ccccc3Cl)o2)c1[N+](=O)[O-]
COc1cc(OC)c2c(C)c(CC(=O)NCCc3ccccc3OC)c(=O)oc2c1
COc1ccc(/C=N/NC(=O)c2nn(-c3ccc(C)c(C)c3)c(=O)c3ccccc23)cc1
O=C1c2cccc3cccc(c23)C(=O)N1CC1CCN(CC(O)COc2ccc3ccccc3c2)CC1 (stereo unspecified)
O=C1ON=C(c2ccccc2)/C1=C/c1ccc(OS(=O)(=O)c2ccccc2)cc1
Cc1cc[n+](-c2ccccc2)c2ccccc12
O=C(Nc1cccc(C(F)(F)F)c1)/C(=C\c1ccco1)NC(=O)c1cccs1
CSc1ccc(C2C(C#N)=C(N)Oc3cc4c(cc32)OCO4)cc1 (stereo unspecified)
COc1ccc(S(=O)(=O)c2cn(C)c3cc(N4CCCCCC4)c(F)cc3c2=O)cc1
NS(=O)(=O)c1ccc(CCNC(=O)CN2CCN(Cc3cccc(C(F)(F)F)c3)CC2)cc1

Sorted by formula weight (falling): five of the compounds above.
Potency, inactive:
O=C1ON=C(c2ccccc2)/C1=C/c1ccc(OS(=O)(=O)c2ccccc2)cc1
CSc1ccc(C2C(C#N)=C(N)Oc3cc4c(cc32)OCO4)cc1 (stereo unspecified)
O=C(O)CN1C(=O)/C(=C/C=C/c2ccccc2)SC1=S
O=C1NNC(c2ccccc2)=N/C1=C\c1ccccc1Cl
O=C(O)c1cc([N+](=O)[O-])ccc1N1CCCCC1

Following part.

Potency, inconclusive:
O=C1CC(SCCO)C(=O)N1c1ccccc1 (stereo unspecified) 0.141 µM [inhibitor, full curve]
Cc1ccc(NC(=O)CCC(=O)NNC(=O)COc2cccc3ccccc23)c(C)c1 44.7 µM [inhibitor, partial curve, poor fit]
COc1ccc(N2CC(C(=O)Nc3nc4ccc(S(C)(=O)=O)cc4s3)CC2=O)cc1 (stereo unspecified) 39.8 µM [inhibitor, partial curve]
Cc1ccc(/C=C2/Sc3ccc(C(=O)NCc4ccccn4)cc3NC2=O)cc1 31.6 µM [inhibitor, full curve, poor fit]
COc1ccc2cc(-c3nc(Cl)c4c5c(sc4n3)CCCC5)c(=O)oc2c1 89.1 µM [inhibitor, single point]
Cc1cccc(C(=O)OCN2C(=O)c3ccccc3C2=O)c1[N+](=O)[O-] 89.1 µM [inhibitor, single point]
COc1ccc(Nc2nc(NCC3CCCO3)c3ccccc3n2)c(OC)c1 (stereo unspecified) 56.2 µM [inhibitor, single point]
COc1cccc(/C=N/n2c(COc3ccccc3)n[nH]c2=S)c1OC 28.2 µM [inhibitor, single point]
COCC(=O)N(Cc1cc2cc(OC)ccc2[nH]c1=O)c1ccc(C)cc1 39.8 µM [inhibitor, single point]
CCc1cc(C(=O)N/N=C/c2c(C)[nH]c3ccccc23)cs1 50.1 µM [inhibitor, partial curve]
COC(=O)Nc1ccc(S(=O)(=O)N2CCN(CCN3C(=O)C4C5C=CC(C5)C4C3=O)CC2)cc1 (stereo unspecified) 22.4 µM [inhibitor, partial curve]
CCN1CCN(C(=O)c2ccccc2N(C)S(=O)(=O)c2ccc(C)cc2)CC1 25.1 µM [inhibitor, single point]
COc1ccc(OC)c(-n2nnnc2SCC(=O)Nc2ccc(C(=O)N3CCCCC3)cc2)c1 89.1 µM [inhibitor, single point]
COc1cccc(-c2nc(NCCN3CCOCC3)c3ccccc3n2)c1O 50.1 µM [inhibitor, partial curve, poor fit]
Cc1c(Cl)ccc2c1NC(=O)[C@]21[C@@H]2C(=O)N(Cc3ccccc3)C(=O)[C@@H]2[C@@H]2CCCN21 3.55 µM [inhibitor, partial curve]
CCc1ccc(S(=O)(=O)c2cnc3ccc(OC)cc3c2N2CCCC(C)C2)cc1 (stereo unspecified) 17.8 µM [inhibitor, single point]
COc1ccc(S(=O)(=O)N2CCC(n3cnc4cc(C(F)(F)F)ccc43)CC2)cc1 1.12 µM [inhibitor, full curve, poor fit]
COCc1cc(C)nc(SCC(=O)c2ccc(O)c(O)c2)c1C#N 20 µM [inhibitor, full curve, poor fit]
Nc1c(C(=O)NCCN2CCOCC2)c2nc3ccccc3nc2n1-c1ccc2c(c1)OCO2 3.16 µM [inhibitor, partial curve, poor fit]
NS(=O)(=O)c1ccc(NC(=O)CSc2ncccn2)cc1 7.08 µM [inhibitor, partial curve]
Cc1ccc(C)c(NC(=O)Cn2nnc(C(=O)NCCc3ccccc3)c2N)c1 12.6 µM [inhibitor, full curve, poor fit]
Cn1c(NC2CCCCC2)c(N=O)c(=O)n(C)c1=O 89.1 µM [inhibitor, single point]

Potency, active:
Cc1cc(NC(=O)COc2cccc3cccnc23)no1 31.6 µM
C#CCOCCOCCOCCNc1nc(N2CCN(C(=O)Cn3cc(CCCN=C(N)N)nn3)CC2)nc(N2CCN(C(=O)Cn3cc(CCCN=C(N)N)nn3)CC2)n1 1.58 µM
COc1cc(/C=C2\SC(=S)N(Nc3ccccc3)C2=O)ccc1O 11.2 µM
CC1=NOC(=O)/C1=C\c1ccc(-c2ccc(Br)cc2)o1 31.6 µM

Activity change, negative = inhibition, inconclusive:
COc1ccc(-n2nc3c(c2NC(=O)C(C)Oc2ccccc2)CS(=O)(=O)C3)cc1 (stereo unspecified) -45% [inhibitor]
S=c1[nH]nc(-c2cccc(Cl)c2)n1/N=C/c1ccco1 -49.4% [inhibitor]
